Results taken from article PMC9705430.
Read-outs that look alike come from different tables or passages of the source. These are yes or no findings as the source states them, for the method shown. Binding seen in cells or lysates may run through a third protein. A yes stands for co-enrichment or nearness to the bait. Other partners may have been found. Tags and fused reporters may be left off the sequences shown. Blank lines part the entries; values can stand above or below the molecule they belong to.

The chains behind the UniProt entries cited, without tags or fusion partners.
UniProt O35730: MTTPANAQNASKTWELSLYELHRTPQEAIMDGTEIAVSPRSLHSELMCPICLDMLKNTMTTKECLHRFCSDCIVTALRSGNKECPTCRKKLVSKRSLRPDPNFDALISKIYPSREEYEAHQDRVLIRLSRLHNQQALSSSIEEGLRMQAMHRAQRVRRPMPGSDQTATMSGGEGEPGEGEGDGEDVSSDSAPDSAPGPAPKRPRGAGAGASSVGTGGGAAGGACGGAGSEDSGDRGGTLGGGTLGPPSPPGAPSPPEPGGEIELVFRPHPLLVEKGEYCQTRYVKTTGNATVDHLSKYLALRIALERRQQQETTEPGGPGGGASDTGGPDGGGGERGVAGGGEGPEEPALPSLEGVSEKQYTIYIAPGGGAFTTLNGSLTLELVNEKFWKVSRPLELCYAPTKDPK
UniProt Q9WTM5: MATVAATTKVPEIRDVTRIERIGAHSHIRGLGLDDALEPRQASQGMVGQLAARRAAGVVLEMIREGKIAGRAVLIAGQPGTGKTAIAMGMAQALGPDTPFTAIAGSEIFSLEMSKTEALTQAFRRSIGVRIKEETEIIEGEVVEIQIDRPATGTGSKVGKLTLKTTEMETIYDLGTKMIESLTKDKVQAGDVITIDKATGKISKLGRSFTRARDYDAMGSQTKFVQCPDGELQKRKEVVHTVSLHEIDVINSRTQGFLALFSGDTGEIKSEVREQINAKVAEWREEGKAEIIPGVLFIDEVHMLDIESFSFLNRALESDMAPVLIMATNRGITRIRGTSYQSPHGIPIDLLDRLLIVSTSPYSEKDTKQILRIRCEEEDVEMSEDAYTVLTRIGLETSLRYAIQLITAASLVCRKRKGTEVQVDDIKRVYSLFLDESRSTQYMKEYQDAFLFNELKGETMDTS
UniProt P97822: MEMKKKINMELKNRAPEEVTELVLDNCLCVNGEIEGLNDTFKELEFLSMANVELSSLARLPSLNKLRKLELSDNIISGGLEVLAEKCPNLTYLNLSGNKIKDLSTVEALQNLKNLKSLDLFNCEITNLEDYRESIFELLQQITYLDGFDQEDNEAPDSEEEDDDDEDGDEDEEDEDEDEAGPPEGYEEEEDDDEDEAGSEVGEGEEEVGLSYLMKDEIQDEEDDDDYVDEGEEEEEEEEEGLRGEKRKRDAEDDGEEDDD
UniProt A2AQH4: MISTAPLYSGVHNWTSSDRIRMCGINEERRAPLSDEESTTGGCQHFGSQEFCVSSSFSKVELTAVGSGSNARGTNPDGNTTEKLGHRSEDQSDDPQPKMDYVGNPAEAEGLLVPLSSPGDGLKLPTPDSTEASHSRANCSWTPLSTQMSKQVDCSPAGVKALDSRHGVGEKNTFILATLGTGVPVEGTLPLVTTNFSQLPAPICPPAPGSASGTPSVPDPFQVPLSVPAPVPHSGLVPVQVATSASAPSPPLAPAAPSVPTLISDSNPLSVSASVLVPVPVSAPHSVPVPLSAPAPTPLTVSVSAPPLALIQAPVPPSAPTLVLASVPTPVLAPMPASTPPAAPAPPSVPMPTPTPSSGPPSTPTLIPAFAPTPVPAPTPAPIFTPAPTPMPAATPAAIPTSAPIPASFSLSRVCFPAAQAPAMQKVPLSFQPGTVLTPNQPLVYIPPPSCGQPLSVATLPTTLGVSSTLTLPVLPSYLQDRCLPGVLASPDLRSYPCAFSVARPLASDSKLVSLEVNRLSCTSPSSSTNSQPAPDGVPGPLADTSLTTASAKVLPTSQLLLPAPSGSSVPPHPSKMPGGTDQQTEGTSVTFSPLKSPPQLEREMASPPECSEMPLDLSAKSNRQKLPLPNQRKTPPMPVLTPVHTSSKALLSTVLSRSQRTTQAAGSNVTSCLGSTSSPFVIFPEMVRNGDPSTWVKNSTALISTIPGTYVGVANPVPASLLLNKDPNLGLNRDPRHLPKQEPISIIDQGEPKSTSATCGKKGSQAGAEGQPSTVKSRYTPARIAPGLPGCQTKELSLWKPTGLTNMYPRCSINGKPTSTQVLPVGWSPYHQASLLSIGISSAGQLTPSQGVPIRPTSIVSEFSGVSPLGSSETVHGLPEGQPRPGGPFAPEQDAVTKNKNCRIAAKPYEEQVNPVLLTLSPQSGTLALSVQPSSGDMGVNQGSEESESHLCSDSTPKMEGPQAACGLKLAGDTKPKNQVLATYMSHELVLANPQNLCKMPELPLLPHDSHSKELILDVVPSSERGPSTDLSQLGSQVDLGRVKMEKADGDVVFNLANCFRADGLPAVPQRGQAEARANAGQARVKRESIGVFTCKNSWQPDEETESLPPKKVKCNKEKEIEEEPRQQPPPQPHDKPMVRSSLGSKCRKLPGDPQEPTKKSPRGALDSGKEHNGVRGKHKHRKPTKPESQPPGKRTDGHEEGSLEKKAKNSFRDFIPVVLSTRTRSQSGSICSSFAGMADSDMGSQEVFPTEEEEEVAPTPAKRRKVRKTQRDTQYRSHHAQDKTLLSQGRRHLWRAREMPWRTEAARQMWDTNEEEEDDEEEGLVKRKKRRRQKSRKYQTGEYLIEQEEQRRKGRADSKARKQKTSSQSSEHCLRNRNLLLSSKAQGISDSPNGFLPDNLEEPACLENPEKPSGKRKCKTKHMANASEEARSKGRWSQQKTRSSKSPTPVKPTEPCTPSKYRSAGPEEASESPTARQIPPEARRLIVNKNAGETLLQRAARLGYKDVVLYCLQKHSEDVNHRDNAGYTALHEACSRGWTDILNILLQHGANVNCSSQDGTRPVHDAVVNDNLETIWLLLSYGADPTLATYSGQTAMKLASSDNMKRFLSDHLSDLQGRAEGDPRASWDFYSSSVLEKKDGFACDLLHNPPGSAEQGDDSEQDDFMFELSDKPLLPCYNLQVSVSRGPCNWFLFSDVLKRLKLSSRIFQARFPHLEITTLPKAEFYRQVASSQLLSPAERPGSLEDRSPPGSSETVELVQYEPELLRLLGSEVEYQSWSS

How the values were obtained:
3xFLAG-tagged PCGF1 [1] = biological target: T1, 3xFLAG-tagged PCGF1 (UniProt Q8R023); test: affinity purification with mass spectrometry; pull-down of exogenous 3xFLAG-PCGF1 expressed in Pcgf1-KO IdHPCs, followed by mass spectrometry (IP-MS); mock immunoprecipitation as negative control; two independent experiments
T1 sequence: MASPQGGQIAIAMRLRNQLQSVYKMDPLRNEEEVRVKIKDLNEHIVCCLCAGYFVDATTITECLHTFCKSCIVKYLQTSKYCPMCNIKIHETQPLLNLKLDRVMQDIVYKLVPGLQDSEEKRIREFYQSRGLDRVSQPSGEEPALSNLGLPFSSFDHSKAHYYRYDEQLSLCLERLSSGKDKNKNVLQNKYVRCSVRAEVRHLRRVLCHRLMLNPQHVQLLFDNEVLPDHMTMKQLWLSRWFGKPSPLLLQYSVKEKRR

3xFLAG-tagged PCGF1 [2] = biological target: T1, 3xFLAG-tagged PCGF1; test: as above; remark: listed apart in the source

Molecule: RING1A (from UniProt O35730 1-406)
binding (3xFLAG-tagged PCGF1 [1]): binds

Molecule: RUVBL2 (from UniProt Q9WTM5 1-463)
binding (3xFLAG-tagged PCGF1 [1]): binds

B2: KDM2B (lysine demethylase 2B) (protein, UniProt Q6P1G2 1-1309)
chain: MEAEKDSGRRLRAIDRQRYDENEDLSDVEEIVSVRGFSLEEKLRSQLYQGDFVHAMEGKDFNYEYVQREALRVPLVFRDKDGLGIKMPDPDFTVRDVKLLVGSRRLVDVMDVNTQKGTEMSMSQFVRYYETPEAQRDKLYNVISLEFSHTKLEHLVKRPTVVDLVDWVDNMWPQHLKEKQTEATNALAEMKYPKVKKYCLMSVKGCFTDFHIDFGGTSVWYHVFRGGKIFWLIPPTLHNLALYEEWVLSGKQSDIFLGDRVERCQRIELKQGYTFFIPSGWIHAVYTPVDSLVFGGNILHSFNVPMQLRIYEIEDRTRVQPKFRYPFYYEMCWYVLERYVYCVTQRSYLTQEYQRELMLIDAPRKTSVDGFSSDSWLDMEEESCEQQPQEEEEEEEDKEEEGDGADKTPKPPTDDPTSPTSTPPEDQDSTGKKPKAPAIRFLKRTLSNESEESVKSTSMPTDDPKTPTGSPATEVSTKWTHLTEFELKGLKALVEKLESLPENKKCVPEGIEDPQALLEGVKNVLKEHVDDDPTLAITGVPVVSWPKKTAKNRVVGRPKGKLGPASAVKLAANRTTAGARRRRTRCRKCEACLRTECGECHFCKDMKKFGGPGRMKQSCIMRQCIAPVLPHTAVCLVCGEAGKEDTVEEEEGKFNLMLMECSICNEIIHPGCLKIKESEGVVNDELPNCWECPKCNHAGKTGKQKRGPGFKYASNLPGSLLKEQKMNRDNKEGQEPAKRRSECEEAPRRRSDEHPKKVPADGILRRKSDDVHLRRKRKYEKPQELSGRKRASSLQTSPGSSSHLSPRPPLGSSLSPWWRSSLTYFQQQLKPGKEDKLFRKKRRSWKNAEDRLSLANKPLRRFKQEPEDDLPEAPPKTRESDQSRSSSPTAGPSTEGAEGPEEKKKVKMRRKRRLVNKELSKELSKELNHEIQKTESTLAHESQQPIKSEPESENDEPKRPLSHCERPHRFSKGLNGTPRELRHSLGPGLRSPPRVMSRPPPSASPPKCIQMERHVIRPPPISPPPDSLPLDDGAAHVMHREVWMAVFSYLSHRDLCVCMRVCRTWNRWCCDKRLWTRIDLNRCKSITPLMLSGIIRRQPVSLDLSWTNISKKQLSWLINRLPGLRDLVLSGCSWIAVSALCSSSCPLLRTLDVQWVEGLKDAQMRDLLSPPTDNRPGQMDNRSKLRNIVELRLAGLDITDVSLRLIIRHMPLLSKLQLSYCNHINDQSINLLTAVGTTTRDSLTEVNLSDCNKVTDLCLSFFKRCGNICHIDLRYCKQVTKEGCEQFIAEMSVSVQFGQVEEKLLQKLS
binding (3xFLAG-tagged PCGF1 [2]): binds

Other lines, results leading:

binding (3xFLAG-tagged PCGF1 [1]): binds
Molecule: ANP32E (from UniProt P97822 1-260)

binding (3xFLAG-tagged PCGF1 [1]): binds
Molecule: BCORL1 (from UniProt A2AQH4 1-1781)

binding (3xFLAG-tagged PCGF1 [2]): binds
B1: RYBP (protein, UniProt Q8CCI5 1-228)
chain: MTMGDKKSPTRPKRQAKPAADEGFWDCSVCTFRNSAEAFKCSICDVRKGTSTRKPRINSQLVAQQVAQQYATPPPPKKEKKEKVEKPDKEKPEKDKDISPSVTKKNTNKKTKPKSDILKDPPSEANSIQSANATTKTSETNHTSRPRLKNVDRSTAQQLAVTVGNVTVIITDFKEKTRSSSTSSSTVTSSAGSEQQNQSSSGSESTDKGSSRSSTPKGDMSAVNDESF
